The results in this text go back to paper PMC10848067.

Protein sequences, listed by entry. Tags and fused reporters are not part of them. Residues count along the entry.
UniProt Q64373: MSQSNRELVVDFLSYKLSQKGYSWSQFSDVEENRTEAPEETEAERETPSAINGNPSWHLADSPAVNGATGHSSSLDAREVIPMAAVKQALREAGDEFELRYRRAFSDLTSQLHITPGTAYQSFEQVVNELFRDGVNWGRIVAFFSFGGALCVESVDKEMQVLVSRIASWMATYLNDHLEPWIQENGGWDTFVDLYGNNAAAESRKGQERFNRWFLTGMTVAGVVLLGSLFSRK
UniProt P56480, residues 47-529: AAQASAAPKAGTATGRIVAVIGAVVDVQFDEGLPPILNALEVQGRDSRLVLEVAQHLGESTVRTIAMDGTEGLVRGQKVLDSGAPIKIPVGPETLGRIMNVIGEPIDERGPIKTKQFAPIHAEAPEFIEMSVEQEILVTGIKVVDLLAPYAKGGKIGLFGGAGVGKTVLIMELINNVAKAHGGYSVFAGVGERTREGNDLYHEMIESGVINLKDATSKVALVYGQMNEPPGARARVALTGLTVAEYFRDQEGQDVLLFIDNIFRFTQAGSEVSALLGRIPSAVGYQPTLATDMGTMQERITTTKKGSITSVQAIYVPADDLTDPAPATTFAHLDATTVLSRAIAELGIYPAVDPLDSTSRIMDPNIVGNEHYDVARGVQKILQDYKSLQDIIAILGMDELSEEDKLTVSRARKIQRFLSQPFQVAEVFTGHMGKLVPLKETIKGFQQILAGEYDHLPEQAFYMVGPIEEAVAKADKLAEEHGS

Results are given in words; binding and its absence hold for the method and conditions named. Binding seen in cells or lysates may run through a third protein. Some binding calls cover weakened binding; strength is not graded here.

Experiment [1] has as its target Bcl‐xL (mouse (endogenous in mouse brain tissue)) (UniProt Q64373). Nature of the experiment: co-IP; mouse brain tissue lysate of WT and PGAM5 knockout mice, precleared with protein A/G magnetic beads; 2 μg rabbit anti-Bcl-xL overnight at 4°C, then magnetic beads 4 h; blot for ATP-β.
Experiment [2] has as its target T1, PGAM5 (mouse (endogenous in mouse brain tissue)) (UniProt Q8BX10).
T1 sequence: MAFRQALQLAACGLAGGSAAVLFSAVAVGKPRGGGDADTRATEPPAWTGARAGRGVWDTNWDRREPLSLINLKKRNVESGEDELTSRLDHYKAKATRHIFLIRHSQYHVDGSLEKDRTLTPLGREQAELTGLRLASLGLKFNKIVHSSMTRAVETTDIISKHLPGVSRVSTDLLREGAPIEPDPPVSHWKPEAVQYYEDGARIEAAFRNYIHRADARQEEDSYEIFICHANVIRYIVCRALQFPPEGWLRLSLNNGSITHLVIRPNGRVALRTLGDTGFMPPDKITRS
In words: co-IP; mouse brain tissue lysate, precleared with protein A/G magnetic beads; 2.5 μg rabbit anti-Pgam5 overnight at 4°C, then magnetic beads 4 h; blot for ATP-β.

For “F1F0 ATP synthase β subunit (from UniProt P56480 47-529)”, the binding entry in experiment [1] and in experiment [2] was “binds” in each case.
